Results taken from article PMC7072953.
Results are given in words; binding and its absence hold for the method and conditions named. In cells and extracts the contact can be indirect. Some results given as binding are weak or reduced against the parent protein; the word gives no strength.

By UniProt entry, the sequences of proteins in these tests, tags left out.
UniProt Q9QUI0: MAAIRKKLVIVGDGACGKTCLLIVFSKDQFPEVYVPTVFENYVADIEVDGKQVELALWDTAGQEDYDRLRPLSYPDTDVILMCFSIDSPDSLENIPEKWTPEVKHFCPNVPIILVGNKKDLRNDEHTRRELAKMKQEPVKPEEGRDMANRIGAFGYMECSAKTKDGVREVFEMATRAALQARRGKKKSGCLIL

Molecular target: RhoA (mouse (endogenous in ZW13-2 cells and C57BL/6J brain)) (UniProt Q9QUI0)
Assay: co-IP

prion protein (from UniProt P04925 23-230)
binding: binds
